The values that follow come from US20230212549A1 (priority 2021, published 2023).

The nature of data set [1]: general procedure: Fmoc solid-phase peptide synthesis; trityl. As to conditions: whole synthesis, scale 50 μmol, thioether ring.
Data set [2] can be described thus: general procedure: Fmoc solid-phase peptide synthesis; polystyrene (PS, DEG), ChemMatrix (CM) or TentaGel (TG) resin; linkers trityl, wang and rink amide. As to conditions: for conjugation yield: conjugation step; for step yield: late stage modification step.
The nature of data set [3]: general procedure: Fmoc solid-phase peptide synthesis; Fmoc-Cys(Trt) WANG Tentagel. Conditions: whole synthesis, scale 50 μmol, thioether ring.
Data set [4] in a line: general procedure: Fmoc solid-phase peptide synthesis; Rink amide. Conditions: whole synthesis, scale 50 μmol.
[5] abbreviates: whole synthesis, scale 100 μmol, thioether ring.
Setting [6] is: whole synthesis, overall, scale of the general procedure 50 μmol and 100 μmol, thioether ring.

For some assays here: HELM strings list residues between dots; [ac] is acetyl, [am] amide, other brackets name non-standard units.

As to “Hex-[Cys(tMeBn(H-AET))-Pro-Pro-Thr-Gln-Phe-Cys]-OH”, the isolated mass in data set [1] (run 1) is recorded as 17.8 mg; in data set [1] (run 2), 19.47 mg. In addition, the isolated yield came to 32.8% in data set [2] (whole synthesis, on resin loading, scale of the general procedure 50 μmol and 100 μmol, thioether ring, run 1); 35.9% in data set [2] (whole synthesis, on resin loading, scale of the general procedure 50 μmol and 100 μmol, thioether ring, run 2).
“Hex-[Cys(tMeBn(H-O2Oc-AET))-Pro-Pro-Thr-Gln-Phe-Cys]-OH” showed a conjugation yield in data set [2] of 29% yield.
In data set [2] (setting [5]), “Hex-[Cys-(tMeBn(NOTA-AET))-Pro-Pro-Thr-Gln-Phe-Cys]-OH” had an isolated yield of 4%.
“Hex-[Cys(tMeBn(DOTA-AET))-Pro-Pro-Thr-Gln-Phe-Cysol]”: the isolated mass in data set [1] was found to be 7.8 mg. The substance further gave an isolated yield in data set [2] (setting [6]) of 10.7% overall yield.
Substance “PEPTIDE1{[Hex].C.P.P.T.Q.F.C.D.[am]}|CHEM1{[tMeBn(DOTA-PP)]}$PEPTIDE1,CHEM1,2:R3-1:R1|PEPTIDE1,CHEM1,8:R3-1:R2$$$V2.0” came in with a conjugation yield in data set [2] of 85%.
In data set [2] (thioether ring), “nBu-CAyl-[Cys(tMeBn(NOPO-AET))-Pro-Pro-Thr-Gln-Phe-Cys]-OH” returned a conjugation yield of 32.0%.
As to “Hex-[Cys-(tMeBn(N4Ac-02Oc-AET))-Pro-Pro-Thr-Gln-Phe-Cys]-OH”, the conjugation yield in data set [2] (thioether ring) is reported as 55% yield.
As to “N4Ac-Glu(AGLU)-Ttds-Nle-[Cys-(3MeBn)-Pro-Pro-Thr-Gln-Phe-Cys]-OH”, the isolated yield in data set [3] is reported as 10%.
“Hex-[Cys(tMeBn(DTPA(tBu)4-O2Oc-AET))-Pro-Pro-Thr-Gln-Phe-Cys]-OH” had a conjugation yield in data set [2] of 53% yield.
“Hex-[Cys(tMeBn(DOTA-AET))-Pro-Pro-Thr-Gln-Phe-Cys]-OH [3BP-3624]” gave a step yield in data set [2] (thioether ring, run 1) of 82%.
As to “Hex-[Cys-(tMeBn(Bio-Ttds-Ttds-Ttds-Ttds-AET))-Pro-Pro-Thr-Gln-Phe-Cys]-OH”, in data set [2] (thioether ring), the conjugation yield amounted to 18% yield.
For the substance “Hex-[Cys-(tMeBn(ReON4Ac-02Oc-AET))-Pro-Pro-Thr-Gln-Phe-Cys]-OH”, the step yield in data set [2] (thioether ring) was 21% yield.
In the case of “Hex-Cys(tMeBn(H-PP))-Pro-Pro-Thr-Gln-Phe-Cys]-Asp-NH2”, the isolated mass in data set [4] (run 1) worked out at 15.3 mg; in data set [4] (run 2) it was 17.2 mg. The isolated yield is on record as 25.3% in data set [2] (whole synthesis, on resin loading, scale of the general procedure 50 μmol and 100 μmol, run 1); 28.4% in data set [2] (whole synthesis, on resin loading, scale of the general procedure 50 μmol and 100 μmol, run 2).
In turn, “Hex-[Cys-Pro-Pro-Thr-Gln-Phe-Cys]-Asp-NH2 (m-xylene cyclised)” came in with an isolated yield in data set [4] (on resin loading) of 30.4%. This substance came in with an isolated mass in data set [4] of 16.9 mg.
“Hex-[Cys(tMeBn(NODAGA-AET))-Pro-Pro-Thr-Gln-Phe-Cys]-OH” came in with a step yield in data set [2] (thioether ring) of 80%.
Take “Hex-[Cys-(tMeBn(H-HYNIC-AET))-Pro-Pro-Thr-Gln-Phe-Cys]-OH”: in data set [2] (thioether ring), the conjugation yield came out at 3.4% and the step yield stood at 7% yield.
The substance “Pentyl-SO2-[Cys(tMeBn(DOTA-PP))-Pro-Pro-Thr-Gln-Phe-Cys]-Asp-NH2” returned an isolated yield in data set [2] (setting [6]) of 8.7% overall yield.
As to “nBu-CAyl-[Cys(tMeBn(DOTA-AET))-Pro-Pro-Thr-Gln-Phe-Cys]-OH”, the isolated yield in data set [2] (whole synthesis, scale of the general procedure 50 μmol and 100 μmol, thioether ring) is 25.6% yield. In data set [2] (whole synthesis, thioether ring), this substance yielded an isolated mass of 28.28 mg.
Take “PEPTIDE1{[Hex].C.P.P.T.Q.F.C}|CHEM1{[tMeBn(DOTA-AET)]}$PEPTIDE1,CHEM1,2:R3-1:R1|PEPTIDE1,CHEM1,8:R3-1:R2$$$V2.0”: the conjugation yield in data set [2] is listed as 77.4% yield.
Turning to “Hex-[Cys-(tMeBn(DTPA-O2Oc-AET))-Pro-Pro-Thr-Gln-Phe-Cys]-OH”, in data set [2] (thioether ring), the conjugation yield worked out at 8% and the step yield came to 53% yield.
Consider “Hex-[Cys(tMeBn(DOTA-PP))-Pro-Pro-Thr-Gln-Phe-Cys]-Asp-NH2 [3BP-3590]”, for which the step yield in data set [2] (thioether ring, run 1) came out at 68.1%.
The substance “Hex-[Cys(3MeBn)-Pro-Pro-Thr-Gln-Phe-Cys]-Asp-NH2” had an isolated mass in data set [4] (thioether ring) of 16.0 mg. The isolated yield in data set [2] (whole synthesis, scale 50 μmol, thioether ring) was determined as 28.8%.
Turning to “Hex-[Cys-(tMeBn(NOTA-Ttds-AET))-Pro-Pro-Thr-Gln-Phe-Cys]-OH”, the isolated yield in data set [2] (setting [5]) came out at 6%.
